US20240207265A1, “TREATMENT OF CNS DISEASES WITH sGC STIMULATORS” (Tisento Therapeutics Inc., priority 2021, published 2024)
For at least one compound, name, drawing or mass did not settle the structure.

Key:
[1] = test system: MK-801-induced memory deficit; assay: Novel Object Recognition (NOR) test, MK-801-induced memory disruption; type: in vivo, rat; settings: MK-801 0.1 mg/kg
Experimental: In the present study, a memory saving model was used. MK-801 (Dizocilpine), an uncompetitive antagonist of the NMDA receptor was used to cause deficit of recognition memory. sGC stimulators were evaluated for their efficacy to prevent memory impairment induced by MK-801.
Adult male Long-Evans rats (275-299 gram at arrival from Envigo, Indianapolis, IN) were used in this study. Rats were placed in the experimental rooms and assigned unique identification numbers (tail marks). Rats were housed 2 per cage in polycarbonate cages with filter tops and acclimated for at least 7 days prior to testing. Animal room was maintained in a 12/12 h light/dark cycle (lights on at 07.00 EST), 22±1° C. and relative humidity at approximately 50%. Food and water were provided ad libitum. All animals were examined, handled and weighed prior to the study to assure adequate health and to minimize the non-specific stress associated with testing. Each animal was randomly assigned across the treatment groups. The experiments were conducted during the animal's light cycle phase.
MK-801 (0.1 mg/kg; Sigma-Aldrich) was dissolved in saline and injected IP, 15 min prior to NOR training. The dose volume was 1 ml/kg.
Galantamine (1 mg/kg; Tocris) was dissolved in saline and injected IP, 15 minutes prior to training. The dose volume was 1 ml/kg.
Compound I-20 (0.03, 0.3 and 1 mg/kg) was formulated in vehicle (0.5% (w/w) methyl cellulose and 0.5% (w/w) Tween 80 in ultrapure water) and orally dosed 60 min prior to NOR training at 2 ml/kg dose volume.
Compound I-14 (0.01, 0.1 and 1 mg/kg) was formulated as its Na+ salt as a solution in MilliQ water and stored as frozen aliquots. The aliquots of compound solutions and compound vehicle were stored in −80° C. and freshly thawed on each testing day. The compound and vehicle were orally dosed 60 minutes prior to NOR training. The dose volume was 10 ml/kg.
NOR test was conducted in an open-field arena (40×40 cm) placed in a sound-attenuated room under dimmed lighting. Each rat was tested separately, and care was taken to remove olfactory/taste cues by cleaning the arena and test objects with 70% alcohol between trials and rats. All training and testing trials were video-taped and scored by an observer blind to treatments.
On Days 1 and 2, rats were allowed to freely explore the arena (no objects inside) for a 5-minute habituation period. On Day 3 (training and testing day), rats were administered vehicle, saline and/or compound solution according to corresponding pretreatment, which is defined as time between injection and start of NOR training. Each animal was placed into the test arena in the presence of two identical objects. Each rat was placed in the arena facing the same direction at the same position, and the time spent actively exploring the objects during a 3-minute training period (T1) was recorded. The rat was returned to its home cage following training. NOR test (T2) was conducted 1 hour after T1. Each rat was placed back into the test arena in the presence of one familiar object and one novel object for 5 minutes, and the time spent exploring both objects was recorded. The presentation order and position of the objects (left/right) in T2 was randomized between rats to prevent bias from order or place preference.
Data of NOR test (T2) were expressed as Recognition Index, which is defined as the ratio of the time spent exploring the novel object over the total time spent exploring both objects (Novel/(Familiar+Novel)×100%) during the test session.
For Compound I-14, data were analyzed in two batches separately. Batch 1 includes Saline-MK-801 group and Galantamine-MK-801 group. Data were analyzed with t-test to evaluate the validity of the test. Batch 2 includes the “sGC stimulator Groups” including 5 treatment groups which contain compound vehicle (MilliQ water): Vehicle-Saline, Vehicle-MK-801, Compound I-14, 0.01 mg/kg—MK-801, Compound I-14, 0.1 mg/kg—MK-801 and Compound I-14, 1 mg/kg—MK-801 or. […]

normotensive rats = assay: Blood pressure effects in normotensive rats after acute oral dose; type: in vivo, rat
Text: Male, normotensive Sprague Dawley rats were purchased from Charles River Laboratories. These rats have indwelling femoral artery catheters installed. Animals were harnessed to a tether system and attached to pressure transducers to monitor cardiovascular (CV) parameters, specifically mean arterial pressure (MAP) and heart rate (HR). Animals were acclimated to the system overnight and baseline CV parameters collected. […] A blood sample was collected from each animal through the catheter line at pre-dose and 2 hours post-dose for compound concentration quantification. Hemodynamic measures were recorded for ten hours post-dose. […]
ADInstruments LabChart (v8) was used to monitor and export hemodynamic data. Blood pressure and heart rate were continuously monitored, and data were collected at 1000 data points per second then averaged into 10-minute bins for analysis. Change from baseline MAP (ΔBMAP) and HR (ΔBHR) were calculated using the pre-dose baseline averaged over the 1-hr period prior to dosing using Microsoft Excel for Microsoft 365. […]
Statistical analyses were performed in Graphpad Prism (v8). Significance, as compared to vehicle-treated rats, for ΔBMAP and ΔBHR data was determined by 2-way repeated measures ANOVA followed by a Dunnett's multiple comparisons test, if there was a missing data point, a mixed-effect analysis was utilized. […]

cGMP = cGMP concentration in rat CSF after single oral dose (CSF biomarker); type: in vivo; settings: suspension in Tween/MC
Experimental: Rats were administered a single dose of either vehicle or sGC stimulator (1, 3, 10 or 30 mg/kg). One, two and six hours after administration, CSF samples were collected and analyzed to determine cGMP and compound concentrations and plasma samples were collected and analyzed to determine compound concentration. Each rat was sampled one time or multiple times with 3 or more days in between each dosing. The day before the experiment rats were fasted overnight with ad libitum access to water.
On the day of the experiment, compound and cyclic guanosine monophosphate (cGMP) concentrations in rat CSF was determined following oral dosing. […]
Plasma and CSF samples were collected under isoflurane anesthesia as follows: samples of CSF and blood were collected at 1, 2, and 6 hours post-dosing. […] Plasma and CSF was collected and analyzed for the presence of a compound.
The compound of the invention, cGMP and the internal standard were extracted from plasma and CSF by precipitation. Samples were analyzed using liquid chromatography (LC) with tandem mass spectrometric detection (MS/MS) using electrospray ionization. […] CSF cGMP data were graphed using Graphpad Prism, version 8.4.3 and are expressed as means±S.E.M. Data were analyzed with a Mixed-effects analysis followed by Dunnett's multiple comparison test comparing to vehicle-treated rats within timepoint. […]

## Oc1nc(-c2cn3ccnc3c(Cc3cc(F)ccc3F)n2)ncc1F [Compound I-20, 5-fluoro-2-(8-(2,5-difluorobenzyl)imidazo[1,2-a]pyrazin-6-yl)pyrimidin-4-ol]
[1]; 0-1 minute time range, 1 mg/kg PO 60 min prior to training
  Recognition Index vs Vehicle-MK-801 group: significantly higher recognition index
[1]; 0-3 min time range, 0.3 mg/kg PO
  Recognition Index vs Vehicle-MK-801 group: trend (P<0.10) of reversing MK-801-induced memory deficits
[1]; 0-3 minute time range, 1 mg/kg PO 60 min prior to training
  Recognition Index vs Vehicle-MK-801 group: significantly reversed MK-801-induced memory deficits
[1]; 0-5 min time range, 0.03 mg/kg PO
  Recognition Index vs Vehicle-MK-801 group: trend (P<0.10) of reversing MK-801-induced memory deficits
[1]; 0-5 min time range, 0.3 mg/kg PO
  Recognition Index vs Vehicle-MK-801 group: significantly reversed MK-801-induced memory deficits
[1]; 0-5 minute time range, 1 mg/kg PO 60 min prior to training
  Recognition Index vs Vehicle-MK-801 group: significantly reversed MK-801-induced memory deficits
Normotensive rats; 1, 3 or 10 mg/kg, formulated in methylcellulose
  reduction of MAP from baseline: able to reduce MAP from baseline at all doses tested
Normotensive rats; single oral dose 1, 3, 10, and 30 mg/kg
  effect on MAP from baseline and as adjusted from vehicle: lowered MAP
cGMP; 10 mg/kg PO, six hours post-dose
  concentration of cGMP in rat CSF vs vehicle-treated rats: significantly higher cGMP in the CSF
cGMP; 1, 3 and 10 mg/kg PO, one and two hours after dosing
  concentration of cGMP in rat CSF vs vehicle-treated rats: no significant change
